Test results as given in patent US9018142B2, “Oil-field biocide method utilizing a peracid” (PeroxyChem LLC, priority 2008, dated 2015).
Some results were stated once for a whole list of compounds, not compound by compound.

System: Desulfovibrio desulfuricans (vulgaris) (ATCC 7757)
Test: Biocidal efficacy against sulfur-reducing bacteria in 0.1 wt % polyacrylamide (colony population analysis, CFU)
Format: cell-based
Conditions: peracetic acid 5 & 10 ppm @ 22° C., 30 & 50 ppm @ 45° C., 300 ppm @ 80° C., 24 hours and beyond
Protocol: Example 1 illustrates the biocidal efficacy of peracetic acid, compared with glutaraldehyde, against a strain of sulfur-reducing bacteria, Desulfovibrio desulfuricans (vulgaris), present in an aqueous solution also containing 0.1 wt % polyacrylamide polymer. A range of peracetic acid and glutaraldehyde concentrations were evaluated for biocidal efficacy: 5, 10, 30, 150 and 300 ppm peracetic acid and 25 and 500 ppm glutaraldehyde.
The dilute aqueous polyacrylamide was prepared using a 50 wt % polyacrylamide solution in water, with the polyacrylamide having an average molecular weight ˜10,000 (Aldrich No. 434949, Sigma-Aldrich, St. Louis, Mo.). The peracetic acid was Vigor Ox® SP-15 antimicrobial agent, containing about 15-17 wt % peracetic acid, 9-11 wt % hydrogen peroxide and 33-38 wt % acetic acid in water (FMC Corporation, Philadelphia, Pa.), and this peracetic acid solution was diluted to 5, 10, 30, 150 and 300 ppm peracetic acid for the various evaluations. The glutaraldehyde used in this Example 1 was a 25 wt % glutaraldehyde solution in water (Sigma-Aldrich No. G4004, Sigma-Aldrich, St. Louis, Mo.), diluted to either 25 or 500 ppm for the evaluations. […]
Peracetic acid and glutaraldehyde were next evaluated for biocidal efficacy against the sulfur-reducing bacterium Desulfovibrio vulgaris. […]

## Peracetic acid
  reduction of the Desulfovibrio vulgaris bacterium (colony population analysis): > 99.99%
